According to US20240384003A1 (PRECISION BIOLOGICS, published 2024):
These are yes or no findings as the source states them, for the method shown. Some entries that bind do so weakly or less than the wild type.

The chains behind the UniProt entries cited, without tags or fusion partners. Where a name states a change or a piece, a line headed by the entry shows the natural chain unless it says otherwise. Residues count along the entry.
UniProt P06731: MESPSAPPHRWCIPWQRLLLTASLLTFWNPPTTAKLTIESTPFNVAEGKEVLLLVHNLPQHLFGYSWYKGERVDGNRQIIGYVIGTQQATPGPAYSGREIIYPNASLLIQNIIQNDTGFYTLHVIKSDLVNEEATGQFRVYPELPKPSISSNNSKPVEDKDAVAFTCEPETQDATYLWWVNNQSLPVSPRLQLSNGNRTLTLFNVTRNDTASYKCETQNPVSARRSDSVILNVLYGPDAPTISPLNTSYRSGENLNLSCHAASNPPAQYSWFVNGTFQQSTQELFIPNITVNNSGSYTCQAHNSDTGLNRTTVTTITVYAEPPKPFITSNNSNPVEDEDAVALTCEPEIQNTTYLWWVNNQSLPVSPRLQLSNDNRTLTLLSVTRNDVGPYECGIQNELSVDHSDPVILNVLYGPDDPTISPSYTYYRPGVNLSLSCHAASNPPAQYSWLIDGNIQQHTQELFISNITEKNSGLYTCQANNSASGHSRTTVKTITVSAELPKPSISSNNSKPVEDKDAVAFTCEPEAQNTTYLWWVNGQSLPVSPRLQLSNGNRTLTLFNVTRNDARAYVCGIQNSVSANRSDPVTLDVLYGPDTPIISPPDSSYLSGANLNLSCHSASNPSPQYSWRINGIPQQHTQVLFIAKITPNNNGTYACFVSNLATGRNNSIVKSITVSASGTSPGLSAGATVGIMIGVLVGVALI
CEACAM5-D2-320*: residues 35-319 of P06731
CEACAM5-D2-318*: residues 35-317 of P06731
CEACAM5-D2-316*: residues 35-315 of P06731
CEACAM5-D2-314*: residues 35-313 of P06731

Columns and labels:
Assay in all cases: ELISA binding curves of truncated CEACAM5
CEACAM5-D2-316* (human) = CEACAM5-D2-316* (human) (UniProt P06731)
CEACAM5-D2-318* (human) = CEACAM5-D2-318* (human) (UniProt P06731)
CEACAM5-D2-314* (human) = CEACAM5-D2-314* (human) (UniProt P06731)
CEACAM5-D2-320* (human) = CEACAM5-D2-320* (human) (UniProt P06731)

Measured: binding

B1: NEO-201 (antibody, human IgG1, kappa, V domains shown)
VH: QVQLVQSGAEVKKPGASVKVSCKASGYTFTDYAMHWVRQAPGQRLEWMGLISTYSGDTKYNQNFQGRVTMTVDKSASTAYMELSSLRSEDTAVYYCARGDYSGSRYWFAYWGQGTLVTVSS
VL: DIQMTQSPSSLSASVGDRVTITCQASENIYGALNWYQRKPGKSPKLLIYGASNLATGMPSRFSGSGSGTDYTFTISSLQPEDIATYYCQQVLSSPYTFGGGTKLEIKR
notes: also called H16C3-Abb*
binds: all assays above
